The list shows a part of the results. These are further read-outs of the screen, such as a control signal, another cell line or another target. No call is given for them. Compounds called inactive in the main read-out are mostly missing here. Potencies come from curve fits of mixed quality, noted in brackets.
Assay: qHTS Assay for Lipid Storage Modulators in Drosophila S3 Cells;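 for cell number change: cells counted by Cell Tracker Red CMTPX staining in the red channel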
Conditions: BODIPY lipid droplet fluorescence, 18-24 h; for cell number change: measured here: cell count max response, cells fed with added oleic acid
Outline: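 Drosophila S3 cells loaded with oleic acid (400 uM, as added) and compounds at several concentrations; lipid droplets imaged by 488-nm laser-scanning cytometry, 500–530 nm intensity and object ratio to cell channel. Percent activity normalized to 20 uM Triacsin C.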

[1] = measured here: cell number channel AC50, cells fed with added oleic acid
[2] = measured here: lipid fluorescence (Fed channel) AC50, cells fed with added oleic acid

In the case of `CCOc1ccc(NC(=O)CN(C)C(=O)c2ccc3[nH]c4c(c3c2)CC(C)CC4)cc1OCC` (configuration not stated), the cell number change was 14.3%, the AC50 [1] was 2.31 µM [rising, partial curve] and the AC50 [2] was 1.84 µM [rising, partial curve].
In the case of `CC(C)C(=O)NC(Nc1cc(C(F)(F)F)ccc1Cl)C(Cl)(Cl)Cl` (configuration not stated), the cell number change was -18.6% and the AC50 [2] was 0.146 µM [falling, single point].
For `COc1cc(SC)ccc1C(=O)NCCOc1ccc(F)cc1`, the cell number change was 48.2%, the AC50 [1] was 20.6 µM [rising, single point] and the AC50 [2] was 20.6 µM [rising, partial curve].
For `Cc1c(Cl)cccc1-n1ccnc1SCC(=O)O`, the cell number change was -19.3%, the AC50 [1] was 2.06 µM [falling, partial curve] and the AC50 [2] was 0.146 µM [falling, full curve, poor fit].
For `O=S1(=O)[C@H]2C[C@@H]3C=C[C@@]2(CN1Cc1ccc(F)cc1)O3`, the cell number change was 10.5% and the AC50 [1] was 6.51 µM [rising, partial curve].
In the case of `COc1ccc(C(=O)NC(=S)Nc2ccc(N3CCOCC3)cc2)cc1Cl`, the cell number change was 4.17%.
For `CCOc1ccccc1NC(=O)NC1CCN(CC(=O)Nc2ccc3c(c2)OCCO3)CC1`, the cell number change was -2.81% and the AC50 [2] was 3.26 µM [rising, partial curve].
With `CC(C)C(NC(=O)c1ccc(C(C)(C)C)cc1)C(=O)N1CCCC1` (configuration not stated) the cell number change was 6.35% and the AC50 [2] was 20.6 µM [rising, single point].
With `N#Cc1c2ccc([N+](=O)[O-])cc2[n+]([O-])n1-c1ccccc1` the cell number change was -60.2%, the AC50 [1] was 16.4 µM [falling, partial curve] and the AC50 [2] was 2.59 µM [falling, full curve].
For `COC(=O)c1sccc1NC(=S)N1CCN(c2cc(C)ccc2C)CC1`, the cell number change was 29% and the AC50 [2] was 9.2 µM [rising, partial curve].
For `COc1cc2[nH]c(C(=O)Nc3ccc(F)cc3)cc2c(OC)c1OC`, the cell number change was -7.04% and the AC50 [2] was 0.58 µM [rising, single point].
For `CCOC(=O)c1sc(NC(=O)c2ccc(S(=O)(=O)N3CCCCC3)cc2)nc1-c1ccccc1`, the cell number change was -3.6% and the AC50 [2] was 29.1 µM [rising, partial curve, poor fit].
With `O=c1[nH]cnc2c1c(-c1ccccc1)cn2-c1ccc(Br)cc1` the cell number change was 8.75% and the AC50 [2] was 18.4 µM [rising, single point].
In the case of `CCC(CC)N1CCN(Cc2nc3ccc([N+](=O)[O-])cc3c(=O)n2-c2ccccc2F)CC1`, the cell number change was 16.1% and the AC50 [2] was 6.51 µM [rising, partial curve].
With `O=S(=O)(Cc1cccc(F)c1)c1c[nH]c2ccccc12` the cell number change was 0.173% and the AC50 [2] was 2.06 µM [rising, partial curve].
In the case of `COc1ccc(OCc2cccc(C(=O)Nn3cc([N+](=O)[O-])cn3)c2)cc1`, the cell number change was -21.5%.
In the case of `COc1ccc(NC(=O)CSCc2ccc(C#N)cc2)c(OC)c1`, the cell number change was -10.8%.
With `O=C(CN(C(=O)CCC(=O)Nc1nccs1)c1cccc(F)c1)NCc1ccc(F)cc1` the cell number change was 62.6% and the AC50 [1] was 29.1 µM [rising, single point].
With `CCNC(=S)NN=C1c2ccccc2-c2ccccc21` the cell number change was 90.8%, the AC50 [1] was 23.1 µM [rising, single point] and the AC50 [2] was 20.6 µM [rising, partial curve].
With `CCCCNC(=O)Cn1c2c(c(-c3ccccc3Cl)cc1=O)CCC2` the cell number change was 25.6% and the AC50 [2] was 18.4 µM [rising, partial curve, poor fit].
For `O=C(COC(=O)Cc1cccc(F)c1)NC(=O)NC1CCCCC1`, the cell number change was 14.1%.
`CC(CCc1ccccc1)NS(=O)(=O)c1ccccc1` (configuration not stated) showed a cell number change of 5.93%.
With `Cc1cc(N2CCN(C)CC2)nc2ccc(NC(=S)N3CCN(c4ccccn4)CC3)cc12` the cell number change was 12.8% and the AC50 [2] was 0.0231 µM [falling, full curve, poor fit].
In the case of `Cc1cccc(NC(=O)COc2coc(CN3CCN(c4ccccc4)CC3)cc2=O)c1`, the cell number change was 58% and the AC50 [1] was 7.31 µM [rising, partial curve].
In the case of `COC(=O)c1cn(Cc2ccccn2)c(=O)c2ccccc12`, the cell number change was 19.5% and the AC50 [2] was 29.1 µM [rising, single point].
For `Cc1ccc(C2=C/C(=C\c3cccnc3)C(=O)O2)cc1`, the cell number change was 1.33% and the AC50 [2] was 29.1 µM [falling, single point].
`COc1cc(NC(=O)COC(=O)/C=C/c2ccc(Cl)cc2Cl)cc(OC)c1` showed a cell number change of 30.9%.
For `CC1=NN(c2ccccc2)C(=O)/C1=C\c1cc(C)n(C)c1C`, the cell number change was 1.69% and the AC50 [2] was 23.1 µM [falling, single point].
For `CC(C)(c1cc(Br)c(O)c(Br)c1)c1cc(Br)c(O)c(Br)c1`, the cell number change was 7.83% and the AC50 [1] was 0.164 µM [falling, full curve].
For `COc1cnc(SCc2ccc(Cl)c(Cl)c2)nc1Cl`, the cell number change was 45.1% and the AC50 [1] was 14.6 µM [rising, partial curve, poor fit].
With `CS(=O)(=O)N(CC(=O)Nc1cccc(F)c1)Cc1ccccc1` the AC50 [1] was 6.51 µM [falling, single point].
For `O=C(OCn1ncc(Cl)c(Cl)c1=O)c1ccc(C(F)(F)F)cc1`, the cell number change was -80.5%, the AC50 [1] was 18.4 µM [falling, partial curve] and the AC50 [2] was 11.6 µM [falling, partial curve].
`CCN(CC)S(=O)(=O)c1cc(C(=O)OCC(=O)c2ccc3c(c2)NC(=O)CO3)ccc1F` showed a cell number change of -20.3%.
With `CCOC(=O)c1ccc(-c2nnc(-c3ccc(Cl)cc3Cl)o2)cc1` the cell number change was -1.62% and the AC50 [2] was 0.58 µM [falling, single point].
For `C/C(=N\NC(=S)NCc1ccccc1)c1ccco1`, the cell number change was -2.46%, the AC50 [1] was 6.51 µM [rising, single point] and the AC50 [2] was 1.3 µM [falling, full curve, poor fit].
`COC(=O)CSc1nnc(-c2c[nH]c3ccccc23)o1` gave a cell number change of 11.7%.
In the case of `O=C(CNC(=O)c1ccc(Br)o1)NNC(=O)c1ccc(Br)cc1`, the cell number change was -4.19% and the AC50 [2] was 2.31 µM [rising, single point].
In the case of `COc1ccc(-c2c(-c3ccc(O)cc3O)n[nH]c2C)cc1OC`, the AC50 [1] was 0.184 µM [rising, partial curve, poor fit] and the AC50 [2] was 0.82 µM [rising, full curve, poor fit].
For `Cc1ccc(-n2c3c(c(=O)[nH]c2=S)C(C(F)(F)F)(C(F)(F)F)NC(=O)N3)cc1`, the cell number change was 34.8%, the AC50 [1] was 29.1 µM [rising, single point] and the AC50 [2] was 0.082 µM [rising, partial curve].

From PubChem BioAssay AID2685 (National Center for Advancing Translational Sciences (NCATS), 2010)
